# Reference: the supplement of paper PMC10849652
# The chains behind the UniProt entries cited, without tags or fusion partners. Where a name states a change or a piece, a line headed by the entry shows the natural chain unless it says otherwise.
# UniProt Q6AI08: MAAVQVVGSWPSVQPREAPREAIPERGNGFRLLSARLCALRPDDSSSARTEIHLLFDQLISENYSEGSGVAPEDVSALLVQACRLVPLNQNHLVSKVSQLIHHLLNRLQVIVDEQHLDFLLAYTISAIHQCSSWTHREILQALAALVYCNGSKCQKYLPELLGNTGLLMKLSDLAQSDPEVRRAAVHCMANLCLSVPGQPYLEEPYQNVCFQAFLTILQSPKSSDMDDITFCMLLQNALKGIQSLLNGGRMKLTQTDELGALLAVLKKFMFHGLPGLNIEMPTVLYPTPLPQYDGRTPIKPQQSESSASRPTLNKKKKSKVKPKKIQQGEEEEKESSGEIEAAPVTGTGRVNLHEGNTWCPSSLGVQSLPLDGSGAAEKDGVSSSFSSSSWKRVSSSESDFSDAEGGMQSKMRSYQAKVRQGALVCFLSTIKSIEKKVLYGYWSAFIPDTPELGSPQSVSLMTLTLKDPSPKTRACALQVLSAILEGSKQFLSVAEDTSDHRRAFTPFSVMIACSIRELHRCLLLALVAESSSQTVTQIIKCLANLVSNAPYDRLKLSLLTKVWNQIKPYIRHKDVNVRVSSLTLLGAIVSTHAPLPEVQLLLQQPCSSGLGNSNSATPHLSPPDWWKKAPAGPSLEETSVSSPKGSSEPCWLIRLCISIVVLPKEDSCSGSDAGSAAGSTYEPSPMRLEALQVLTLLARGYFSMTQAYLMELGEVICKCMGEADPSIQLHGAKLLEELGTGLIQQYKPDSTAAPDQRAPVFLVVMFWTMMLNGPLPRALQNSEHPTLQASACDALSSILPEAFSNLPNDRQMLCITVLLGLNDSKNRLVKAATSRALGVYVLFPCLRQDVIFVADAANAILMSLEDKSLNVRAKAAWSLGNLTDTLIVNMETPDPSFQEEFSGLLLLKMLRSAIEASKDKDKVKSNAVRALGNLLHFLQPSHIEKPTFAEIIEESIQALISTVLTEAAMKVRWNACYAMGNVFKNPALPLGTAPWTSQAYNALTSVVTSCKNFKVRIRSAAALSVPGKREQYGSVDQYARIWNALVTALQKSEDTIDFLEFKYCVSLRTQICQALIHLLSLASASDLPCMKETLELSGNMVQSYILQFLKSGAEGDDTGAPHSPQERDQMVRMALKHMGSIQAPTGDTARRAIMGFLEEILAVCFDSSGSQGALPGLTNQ
# UniProt Q6PII5: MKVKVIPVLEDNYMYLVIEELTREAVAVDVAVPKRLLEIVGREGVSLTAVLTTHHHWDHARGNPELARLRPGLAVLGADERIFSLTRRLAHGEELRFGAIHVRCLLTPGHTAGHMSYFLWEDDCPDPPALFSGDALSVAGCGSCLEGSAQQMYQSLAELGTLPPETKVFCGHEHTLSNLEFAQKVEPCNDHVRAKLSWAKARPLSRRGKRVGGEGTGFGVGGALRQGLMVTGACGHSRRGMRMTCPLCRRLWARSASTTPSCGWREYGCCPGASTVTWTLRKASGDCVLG
# UniProt P28161: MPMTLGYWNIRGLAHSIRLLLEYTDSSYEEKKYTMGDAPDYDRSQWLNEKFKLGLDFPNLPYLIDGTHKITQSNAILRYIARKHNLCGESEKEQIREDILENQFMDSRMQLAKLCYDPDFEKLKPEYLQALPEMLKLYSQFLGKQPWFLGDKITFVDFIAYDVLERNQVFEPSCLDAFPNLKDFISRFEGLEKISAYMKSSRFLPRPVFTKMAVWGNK
# UniProt Q9Y450, whole entry, looked up: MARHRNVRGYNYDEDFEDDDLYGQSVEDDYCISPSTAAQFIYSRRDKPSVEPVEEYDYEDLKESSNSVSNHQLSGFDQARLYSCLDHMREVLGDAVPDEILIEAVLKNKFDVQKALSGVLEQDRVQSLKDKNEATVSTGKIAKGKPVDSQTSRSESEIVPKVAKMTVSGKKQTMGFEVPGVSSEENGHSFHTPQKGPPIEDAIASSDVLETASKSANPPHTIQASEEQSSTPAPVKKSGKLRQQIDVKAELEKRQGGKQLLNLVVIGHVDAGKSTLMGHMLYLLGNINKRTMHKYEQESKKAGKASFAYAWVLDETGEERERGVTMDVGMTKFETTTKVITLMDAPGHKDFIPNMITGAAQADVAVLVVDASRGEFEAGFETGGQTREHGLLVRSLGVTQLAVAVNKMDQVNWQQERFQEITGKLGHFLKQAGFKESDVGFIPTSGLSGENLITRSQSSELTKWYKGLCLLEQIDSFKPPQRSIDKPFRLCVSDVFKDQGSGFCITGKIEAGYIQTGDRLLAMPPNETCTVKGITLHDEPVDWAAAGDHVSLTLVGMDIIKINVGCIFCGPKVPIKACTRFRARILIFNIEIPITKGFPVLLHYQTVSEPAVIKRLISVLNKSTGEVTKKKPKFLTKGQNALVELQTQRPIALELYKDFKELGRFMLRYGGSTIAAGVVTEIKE
# UniProt Q8WW33: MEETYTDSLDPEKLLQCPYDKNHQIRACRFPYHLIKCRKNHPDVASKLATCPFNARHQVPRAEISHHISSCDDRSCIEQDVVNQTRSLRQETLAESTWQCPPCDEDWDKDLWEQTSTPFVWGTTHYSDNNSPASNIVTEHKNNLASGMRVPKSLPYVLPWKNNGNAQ
# UniProt P13807: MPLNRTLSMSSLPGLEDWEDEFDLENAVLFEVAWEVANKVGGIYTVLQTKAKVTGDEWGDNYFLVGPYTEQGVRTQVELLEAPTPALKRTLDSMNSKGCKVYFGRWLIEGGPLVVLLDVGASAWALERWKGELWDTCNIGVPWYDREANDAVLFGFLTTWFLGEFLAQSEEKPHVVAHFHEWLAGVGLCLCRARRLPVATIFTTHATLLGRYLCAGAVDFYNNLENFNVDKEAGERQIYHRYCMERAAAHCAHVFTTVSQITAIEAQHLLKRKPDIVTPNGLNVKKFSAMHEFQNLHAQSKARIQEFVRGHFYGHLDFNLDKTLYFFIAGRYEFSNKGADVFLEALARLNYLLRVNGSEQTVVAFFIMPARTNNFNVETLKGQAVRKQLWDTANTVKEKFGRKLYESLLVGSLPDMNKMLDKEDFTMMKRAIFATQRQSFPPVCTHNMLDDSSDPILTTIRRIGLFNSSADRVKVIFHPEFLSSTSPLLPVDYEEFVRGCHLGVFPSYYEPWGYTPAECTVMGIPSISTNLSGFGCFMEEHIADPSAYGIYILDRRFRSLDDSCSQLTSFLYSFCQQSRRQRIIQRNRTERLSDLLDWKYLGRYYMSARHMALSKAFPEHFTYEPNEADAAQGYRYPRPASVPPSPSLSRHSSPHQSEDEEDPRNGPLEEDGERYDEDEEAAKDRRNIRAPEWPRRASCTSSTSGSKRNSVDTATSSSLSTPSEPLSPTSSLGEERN
# UniProt Q92769, whole entry, looked up: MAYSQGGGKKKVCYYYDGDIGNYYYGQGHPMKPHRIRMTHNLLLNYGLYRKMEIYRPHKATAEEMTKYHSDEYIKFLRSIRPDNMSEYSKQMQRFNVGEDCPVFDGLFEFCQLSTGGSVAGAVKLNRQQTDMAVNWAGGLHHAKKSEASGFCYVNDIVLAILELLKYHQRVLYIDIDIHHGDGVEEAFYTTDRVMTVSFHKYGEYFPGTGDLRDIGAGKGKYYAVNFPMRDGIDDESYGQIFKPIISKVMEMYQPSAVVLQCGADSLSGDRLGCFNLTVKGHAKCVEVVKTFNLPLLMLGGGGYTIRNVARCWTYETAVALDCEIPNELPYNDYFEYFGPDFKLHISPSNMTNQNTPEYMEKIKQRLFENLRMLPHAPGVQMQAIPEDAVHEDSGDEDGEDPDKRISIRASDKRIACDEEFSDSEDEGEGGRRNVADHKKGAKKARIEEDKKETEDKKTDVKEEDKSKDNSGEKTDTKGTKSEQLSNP
# UniProt P42694: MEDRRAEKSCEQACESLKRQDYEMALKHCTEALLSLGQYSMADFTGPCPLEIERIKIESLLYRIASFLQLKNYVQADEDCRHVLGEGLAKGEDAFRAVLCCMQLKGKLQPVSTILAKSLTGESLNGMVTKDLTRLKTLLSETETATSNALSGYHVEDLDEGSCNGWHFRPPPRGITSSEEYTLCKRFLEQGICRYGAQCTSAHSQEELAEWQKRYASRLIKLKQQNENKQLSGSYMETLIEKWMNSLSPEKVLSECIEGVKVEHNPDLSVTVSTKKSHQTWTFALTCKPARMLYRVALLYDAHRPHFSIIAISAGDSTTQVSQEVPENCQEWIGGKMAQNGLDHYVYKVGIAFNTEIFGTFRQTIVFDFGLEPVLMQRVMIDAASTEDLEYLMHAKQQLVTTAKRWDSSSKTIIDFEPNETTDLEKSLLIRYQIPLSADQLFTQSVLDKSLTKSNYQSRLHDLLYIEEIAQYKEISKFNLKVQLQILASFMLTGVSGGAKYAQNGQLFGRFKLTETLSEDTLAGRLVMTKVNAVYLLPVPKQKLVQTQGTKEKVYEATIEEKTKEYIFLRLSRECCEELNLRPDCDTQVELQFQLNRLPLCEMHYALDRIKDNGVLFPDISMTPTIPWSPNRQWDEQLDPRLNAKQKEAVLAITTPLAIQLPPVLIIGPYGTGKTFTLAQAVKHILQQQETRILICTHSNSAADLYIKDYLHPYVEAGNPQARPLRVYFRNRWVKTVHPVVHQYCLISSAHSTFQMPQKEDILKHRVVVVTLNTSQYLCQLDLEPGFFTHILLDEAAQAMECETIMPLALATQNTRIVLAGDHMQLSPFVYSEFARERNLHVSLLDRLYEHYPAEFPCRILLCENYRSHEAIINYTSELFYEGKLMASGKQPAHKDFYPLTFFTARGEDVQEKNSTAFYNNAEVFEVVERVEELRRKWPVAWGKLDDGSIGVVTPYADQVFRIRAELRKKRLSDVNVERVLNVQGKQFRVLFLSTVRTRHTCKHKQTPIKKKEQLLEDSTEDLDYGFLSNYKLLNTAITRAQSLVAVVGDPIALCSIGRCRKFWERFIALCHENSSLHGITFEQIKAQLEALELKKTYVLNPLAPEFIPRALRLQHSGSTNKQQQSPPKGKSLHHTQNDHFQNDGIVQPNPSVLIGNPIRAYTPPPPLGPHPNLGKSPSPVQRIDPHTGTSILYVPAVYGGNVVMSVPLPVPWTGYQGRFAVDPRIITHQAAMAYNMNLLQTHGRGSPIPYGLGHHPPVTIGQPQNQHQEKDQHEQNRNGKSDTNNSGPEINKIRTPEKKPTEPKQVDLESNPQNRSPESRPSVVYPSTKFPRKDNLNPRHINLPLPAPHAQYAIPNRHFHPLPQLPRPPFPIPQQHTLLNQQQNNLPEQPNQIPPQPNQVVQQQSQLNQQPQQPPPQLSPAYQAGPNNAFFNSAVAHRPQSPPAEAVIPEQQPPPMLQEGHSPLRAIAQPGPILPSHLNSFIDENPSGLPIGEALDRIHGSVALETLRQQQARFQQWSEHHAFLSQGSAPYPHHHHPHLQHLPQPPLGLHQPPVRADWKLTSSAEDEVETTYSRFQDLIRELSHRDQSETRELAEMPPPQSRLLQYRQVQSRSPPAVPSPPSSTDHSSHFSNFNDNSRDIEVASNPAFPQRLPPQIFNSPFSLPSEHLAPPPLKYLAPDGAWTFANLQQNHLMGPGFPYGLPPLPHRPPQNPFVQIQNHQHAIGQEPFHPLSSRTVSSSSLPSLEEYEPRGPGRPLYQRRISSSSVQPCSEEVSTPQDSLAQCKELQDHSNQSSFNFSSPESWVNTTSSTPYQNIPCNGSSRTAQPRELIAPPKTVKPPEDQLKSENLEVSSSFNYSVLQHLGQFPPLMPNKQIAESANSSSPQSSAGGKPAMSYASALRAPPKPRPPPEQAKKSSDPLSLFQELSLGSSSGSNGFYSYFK
# UniProt P69891: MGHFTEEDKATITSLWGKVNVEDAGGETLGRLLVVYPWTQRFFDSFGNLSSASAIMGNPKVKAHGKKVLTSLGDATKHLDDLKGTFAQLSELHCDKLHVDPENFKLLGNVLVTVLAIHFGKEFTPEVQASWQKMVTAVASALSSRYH
# UniProt P46439: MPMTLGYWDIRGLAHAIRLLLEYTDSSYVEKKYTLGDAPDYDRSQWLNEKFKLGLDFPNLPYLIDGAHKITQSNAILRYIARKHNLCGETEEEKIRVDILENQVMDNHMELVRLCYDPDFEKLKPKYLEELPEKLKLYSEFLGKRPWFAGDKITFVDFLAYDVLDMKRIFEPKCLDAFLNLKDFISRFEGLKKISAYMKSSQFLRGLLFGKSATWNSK
# UniProt Q8WVB3: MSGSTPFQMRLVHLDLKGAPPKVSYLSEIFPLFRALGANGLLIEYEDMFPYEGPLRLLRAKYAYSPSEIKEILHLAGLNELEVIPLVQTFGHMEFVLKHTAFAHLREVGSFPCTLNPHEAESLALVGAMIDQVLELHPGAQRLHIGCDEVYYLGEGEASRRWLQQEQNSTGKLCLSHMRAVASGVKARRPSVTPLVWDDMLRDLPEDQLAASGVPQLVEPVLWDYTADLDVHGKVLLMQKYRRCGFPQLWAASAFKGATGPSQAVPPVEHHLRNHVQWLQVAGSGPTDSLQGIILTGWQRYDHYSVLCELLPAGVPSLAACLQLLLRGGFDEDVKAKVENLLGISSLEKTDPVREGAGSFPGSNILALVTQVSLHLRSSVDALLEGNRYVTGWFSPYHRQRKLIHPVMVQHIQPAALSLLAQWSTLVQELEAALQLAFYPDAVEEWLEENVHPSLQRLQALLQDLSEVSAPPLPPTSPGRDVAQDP
# This is one part of the list.
# What was measured:
# Assay in all cases: log2 fold change, soluble protein after heating vs DMSO (PISA); higher = thermal stabilisation; K562 cells, 10 uM, 30 min; active = over 0.2 and 3.5 SD of the protein, either way, in both replicates (recomputed)
# [1] = compound: NC(=O)Nc1cc(-c2cccc(F)c2)sc1C(=O)N[C@H]1CCCNC1
# Outline: (§1)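 For each measurement, 10 μM compound was applied for 30 min to K562 cells at 2×10^6 cells/mL. Aliquots were heated for 3 min across 48°C-58°C, pooled, and extracted in PBS with 0.5% NP-40 at 4°C; the supernatant after 21,000xg for 90 min was soluble protein. This was quantified by TMTpro 16plex LC-MS/MS with channel sums equalised, and thermal stability was reported relative to control samples from duplicates, on a log2 fold-change scale.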
# [2] = compound: NC(=O)c1cnc(N[C@@H]2CCCC[C@@H]2N)nc1Nc1cccc(-n2nccn2)c1
# Outline: as §1
# [3] = compound: NC1(c2ccc(-c3nc4ccn5c(=O)[nH]nc5c4cc3-c3ccccc3)cc2)CCC1
# Outline: as §1
# [4] = compound: NCC(=O)Nc1ccc(-n2nc(C(F)(F)F)cc2-c2ccc3c(ccc4ccccc43)c2)cc1
# Outline: as §1
# entinostat = compound: Nc1ccccc1NC(=O)c1ccc(CNC(=O)OCc2cccnc2)cc1 [entinostat]
# Outline: as §1
# vorinostat = compound: O=C(CCCCCCC(=O)Nc1ccccc1)NO [vorinostat]
# Outline: as §1
# citarinostat = compound: O=C(CCCCCCNC(=O)c1cnc(N(c2ccccc2)c2ccccc2Cl)nc1)NO [citarinostat]
# Outline: as §1
# silmitasertib = compound: O=C(O)c1ccc2c(c1)nc(Nc1cccc(Cl)c1)c1ccncc12 [silmitasertib]
# Outline: as §1
# [5] = compound: O=C1NC(=O)C(c2cnc3ccccn23)=C1c1cn2c3c(cc(F)cc13)CN(C(=O)N1CCCCC1)CC2
# Outline: as §1
# [6] = compound: c1cc(OCCN2CCCCC2)cc(-c2n[nH]c3ccc(-c4nnc[nH]4)cc23)c1
# Outline: as §1
# entospletinib = compound: c1cn2cc(-c3ccc4cn[nH]c4c3)nc(Nc3ccc(N4CCOCC4)cc3)c2n1 [entospletinib]
# Outline: as §1
Target,log2 fold change [1],log2 fold change [2],log2 fold change [3],log2 fold change [4],log2 fold change (entinostat),log2 fold change (vorinostat),log2 fold change (citarinostat),log2 fold change (silmitasertib),log2 fold change [5],log2 fold change [6],log2 fold change (entospletinib)
GSS (UniProt P48637),inactive: 0.016,inactive: -0.014,inactive: 0.012,inactive: 0.014,inactive: -0.025,inactive: -0.016,inactive: 0.005,inactive: -0.018,inactive: -0.035,inactive: -0.002,inactive: -0.022
HEATR6 (UniProt Q6AI08),inactive: -0.001,inactive: -0.042,inactive: -0.038,inactive: 0.048,inactive: 0.067,–,inactive: -0.054,inactive: 0,inactive: 0.015,inactive: -0.009,inactive: 0.034
HEXIM1 (UniProt O94992),inactive: -0.041,inactive: -0.123,inactive: 0.058,inactive: 0.09,inactive: -0.042,inactive: -0.071,inactive: 0,inactive: -0.048,inactive: 0.062,inactive: -0.051,inactive: 0.04
GTPBP2 (UniProt Q9BX10),inactive: 0.027,inactive: 0.012,inactive: -0.047,inactive: -0.072,inactive: 0.093,inactive: 0.17,inactive: -0.025,inactive: 0.025,inactive: 0.071,inactive: -0.022,inactive: 0.008
HAGHL isoform 2 (UniProt Q6PII5),inactive: 0.082,inactive: -0.16,inactive: 0.085,inactive: 0.075,inactive: 0.026,–,–,inactive: 0.098,inactive: 0.163,–,–
GSTM2 (UniProt P28161),inactive: -0.014,inactive: 0.01,inactive: 0.002,inactive: 0.039,inactive: -0.008,inactive: -0.028,inactive: -0.015,inactive: -0.024,inactive: -0.047,inactive: 0.07,inactive: 0.074
GUF1 (UniProt Q8N442),inactive: 0.003,inactive: -0.078,inactive: -0.009,inactive: 0.002,inactive: 0.011,inactive: -0.009,inactive: 0.023,inactive: 0.096,–,inactive: -0.079,inactive: 0.213
HBS1L isoform 2 (UniProt Q9Y450),inactive: -0.082,inactive: -0.023,inactive: -0.175,inactive: -0.204,inactive: 0.063,inactive: 0.069,inactive: 0.177,inactive: 0.02,inactive: 0.043,inactive: -0.017,inactive: -0.056
GTSF1 (UniProt Q8WW33),inactive: 0.017,inactive: 0.037,inactive: 0.027,inactive: 0.061,inactive: 0.004,inactive: 0.005,inactive: 0.01,inactive: -0.047,inactive: -0.055,inactive: 0.023,inactive: -0.036
GTF2F2 (UniProt P13984),inactive: 0.006,inactive: -0.036,inactive: -0.063,inactive: -0.05,inactive: 0.008,inactive: 0.051,inactive: 0.028,inactive: -0.043,inactive: -0.081,inactive: -0.039,inactive: 0.001
HDAC3 isoform 2 (UniProt O15379),inactive: 0.026,inactive: 0.019,inactive: -0.037,inactive: -0.009,–,inactive: -0.026,inactive: 0.079,inactive: -0.031,inactive: -0.006,inactive: -0.093,inactive: -0.057
HARS2 (UniProt P49590),inactive: -0.05,inactive: 0.069,inactive: -0.014,inactive: -0.015,inactive: -0.035,inactive: -0.048,inactive: -0.035,inactive: 0.055,inactive: -0.017,inactive: -0.059,inactive: 0.005
HDAC1 (UniProt Q13547),inactive: -0.015,inactive: 0.128,inactive: -0.017,inactive: 0.006,–,active: 1.79,active: 1.52,inactive: 0.06,inactive: -0.03,inactive: 0.003,–
GYS1 (UniProt P13807),inactive: -0.05,inactive: -0.027,inactive: 0.05,inactive: 0.091,inactive: -0.077,inactive: -0.125,inactive: -0.103,inactive: 0.05,inactive: -0.002,inactive: -0.301,active: 0.782
HDAC2 (UniProt Q92769),inactive: -0.01,inactive: -0.037,inactive: -0.013,inactive: -0.039,–,–,active: 1.04,inactive: 0.04,inactive: -0.021,inactive: -0.041,–
H1-3 (UniProt P16402),inactive: 0.103,inactive: 0.136,inactive: 0.261,inactive: 0.187,inactive: -0.004,inactive: 0.119,inactive: -0.099,inactive: 0.025,inactive: 0.154,inactive: -0.112,inactive: 0.054
GSPT2 (UniProt Q8IYD1),inactive: -0.026,inactive: -0.028,inactive: -0.208,inactive: -0.093,inactive: -0.04,inactive: 0.272,inactive: -0.116,inactive: 0.135,inactive: -0.204,inactive: 0.046,inactive: -0.034
HBS1L (UniProt Q9Y450),inactive: -0.03,inactive: -0.035,inactive: -0.083,inactive: -0.063,inactive: 0.032,inactive: 0.071,inactive: 0.016,inactive: 0.011,inactive: -0.013,inactive: -0.039,inactive: -0.013
HEATR5A (UniProt Q86XA9),inactive: -0.069,inactive: -0.121,inactive: -0.225,inactive: -0.135,inactive: 0.023,inactive: 0.114,inactive: 0.021,inactive: 0.165,inactive: -0.006,inactive: -0.128,inactive: 0.11

# Part of the list above, bar-delimited.
Target | log2 fold change [1] | log2 fold change [2] | log2 fold change [3] | log2 fold change [4] | log2 fold change (entinostat) | log2 fold change (vorinostat) | log2 fold change (citarinostat) | log2 fold change (silmitasertib) | log2 fold change [5] | log2 fold change [6] | log2 fold change (entospletinib)
HBS1L isoform 2 (UniProt Q9Y450) | inactive: -0.082 | inactive: -0.023 | inactive: -0.175 | inactive: -0.204 | inactive: 0.063 | inactive: 0.069 | inactive: 0.177 | inactive: 0.02 | inactive: 0.043 | inactive: -0.017 | inactive: -0.056
GTSF1 (UniProt Q8WW33) | inactive: 0.017 | inactive: 0.037 | inactive: 0.027 | inactive: 0.061 | inactive: 0.004 | inactive: 0.005 | inactive: 0.01 | inactive: -0.047 | inactive: -0.055 | inactive: 0.023 | inactive: -0.036

# Going on with the list.

Target,log2 fold change [1],log2 fold change [2],log2 fold change [3],log2 fold change [4],log2 fold change (entinostat),log2 fold change (vorinostat),log2 fold change (citarinostat),log2 fold change (silmitasertib),log2 fold change [5],log2 fold change [6],log2 fold change (entospletinib)
HAL (UniProt P42357),inactive: 0.132,inactive: 0.32,inactive: 0.204,inactive: 0.059,inactive: 0.283,–,inactive: -0.446,inactive: -0.087,inactive: -0.136,inactive: 1.42,inactive: -0.102
HELB (UniProt Q8NG08),inactive: -0.079,inactive: 0.009,inactive: -0.032,inactive: 0.058,inactive: 0.013,inactive: -0.073,inactive: 0.063,inactive: 0.001,inactive: -0.024,inactive: 0.058,inactive: 0.017
H6PD (UniProt O95479),inactive: 0.103,inactive: 0.001,inactive: 0.025,inactive: 0.23,inactive: 0.014,inactive: -0.077,inactive: -0.062,inactive: 0,inactive: 0.037,inactive: 0.002,inactive: -0.039
HELZ (UniProt P42694),inactive: 0.054,inactive: 0.111,inactive: 0.055,inactive: -0.044,inactive: 0.022,inactive: 0.044,inactive: 0.125,inactive: 0.09,–,inactive: -0.067,inactive: 0.077
HBG1 (UniProt P69891),inactive: 0.008,inactive: 0.013,inactive: 0.036,inactive: 0.027,inactive: 0.076,inactive: -0.044,inactive: 0.023,inactive: -0.024,inactive: -0.065,inactive: -0.002,inactive: -0.033
HAUS5 (UniProt O94927),inactive: -0.227,inactive: -0.009,inactive: 0.317,–,inactive: -0.221,inactive: 0.015,inactive: -0.105,inactive: 0.235,–,inactive: -0.212,inactive: -0.017
HBD (UniProt P02042),inactive: -0.08,inactive: 1.09,inactive: 0.014,inactive: 0.013,inactive: 0.043,inactive: -0.118,inactive: -0.027,inactive: 0.016,inactive: -0.095,inactive: 0.015,inactive: 0.111
HDAC5 isoform 3 (UniProt Q9UQL6),inactive: -0.148,inactive: 0.183,inactive: 0.168,–,inactive: 0.002,inactive: -0.072,inactive: -0.023,inactive: -0.028,inactive: 0,inactive: 0.012,inactive: -0.136
HDDC3 (UniProt Q8N4P3),inactive: 0.026,inactive: -0.068,inactive: -0.005,inactive: -0.033,inactive: -0.006,inactive: 0.069,inactive: -0.018,inactive: 0.003,inactive: -0.093,inactive: -0.049,inactive: 0.046
GSTCD (UniProt Q8NEC7),inactive: 0.039,inactive: -0.115,inactive: -0.154,inactive: -0.077,inactive: 0.014,–,inactive: -0.018,inactive: -0.113,inactive: 0.011,inactive: -0.012,inactive: 0.079
GSTM5 (UniProt P46439),inactive: 0.257,inactive: -0.034,inactive: 0.124,inactive: -0.008,inactive: 0.152,inactive: -0.06,–,inactive: 0.1,inactive: 0.123,–,–
GSTK1 (UniProt Q9Y2Q3),inactive: -0.034,inactive: -0.011,inactive: -0.046,inactive: -0.021,inactive: 0.081,inactive: 0.002,inactive: 0.059,inactive: -0.058,inactive: -0.153,inactive: -0.01,inactive: -0.059
HDAC7 isoform 5 (UniProt Q8WUI4),inactive: 0.009,inactive: 0.123,inactive: 0.188,inactive: -0.036,–,inactive: 0.027,inactive: 0.032,inactive: 0.021,inactive: 0.032,inactive: -0.163,–
HEATR1 (UniProt Q9H583),inactive: 0.012,inactive: -0.105,inactive: 0.154,inactive: 0.143,inactive: -0.042,inactive: 0.057,–,inactive: 0.005,inactive: 0.036,–,–
GYG2 (UniProt O15488),–,–,inactive: -0.136,–,–,–,–,inactive: -0.032,–,–,–
HEXD isoform 2 (UniProt Q8WVB3),inactive: 0.099,–,–,inactive: -0.012,inactive: 0.059,inactive: 0.064,–,–,inactive: 0.031,–,–
GXYLT1 (UniProt Q4G148),–,inactive: -0.04,inactive: -0.031,inactive: 0.002,–,inactive: 0.233,inactive: 0.323,inactive: -0.11,inactive: 0.414,inactive: -0.02,inactive: -0.042
HELLS (UniProt Q9NRZ9),–,–,–,–,–,inactive: 0.408,–,–,inactive: -0.231,–,–
